For 2 substances, binding results are on record in patent US20140141061A1.

By UniProt entry, the sequences of proteins in these tests, tags left out. Residues count along the entry.
UniProt Q16665: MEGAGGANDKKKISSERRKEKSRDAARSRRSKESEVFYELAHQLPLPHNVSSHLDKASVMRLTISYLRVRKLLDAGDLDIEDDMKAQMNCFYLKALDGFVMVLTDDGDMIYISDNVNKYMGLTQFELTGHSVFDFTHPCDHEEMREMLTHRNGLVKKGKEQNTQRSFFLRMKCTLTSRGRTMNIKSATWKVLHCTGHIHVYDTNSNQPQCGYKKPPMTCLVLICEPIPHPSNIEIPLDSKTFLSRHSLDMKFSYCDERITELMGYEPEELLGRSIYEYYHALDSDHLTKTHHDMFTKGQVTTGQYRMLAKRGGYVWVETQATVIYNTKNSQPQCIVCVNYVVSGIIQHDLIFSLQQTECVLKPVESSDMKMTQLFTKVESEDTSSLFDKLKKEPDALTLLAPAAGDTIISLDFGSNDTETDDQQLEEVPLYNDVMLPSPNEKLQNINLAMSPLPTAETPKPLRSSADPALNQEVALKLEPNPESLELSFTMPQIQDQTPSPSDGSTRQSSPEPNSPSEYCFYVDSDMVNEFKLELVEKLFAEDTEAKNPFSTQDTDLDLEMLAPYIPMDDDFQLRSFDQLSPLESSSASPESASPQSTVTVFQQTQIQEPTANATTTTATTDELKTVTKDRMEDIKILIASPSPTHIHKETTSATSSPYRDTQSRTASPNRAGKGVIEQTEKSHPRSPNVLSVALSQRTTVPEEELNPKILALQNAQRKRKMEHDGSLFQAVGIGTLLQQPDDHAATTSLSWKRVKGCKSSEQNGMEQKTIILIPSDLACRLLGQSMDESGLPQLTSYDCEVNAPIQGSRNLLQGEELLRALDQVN
UniProt Q61221: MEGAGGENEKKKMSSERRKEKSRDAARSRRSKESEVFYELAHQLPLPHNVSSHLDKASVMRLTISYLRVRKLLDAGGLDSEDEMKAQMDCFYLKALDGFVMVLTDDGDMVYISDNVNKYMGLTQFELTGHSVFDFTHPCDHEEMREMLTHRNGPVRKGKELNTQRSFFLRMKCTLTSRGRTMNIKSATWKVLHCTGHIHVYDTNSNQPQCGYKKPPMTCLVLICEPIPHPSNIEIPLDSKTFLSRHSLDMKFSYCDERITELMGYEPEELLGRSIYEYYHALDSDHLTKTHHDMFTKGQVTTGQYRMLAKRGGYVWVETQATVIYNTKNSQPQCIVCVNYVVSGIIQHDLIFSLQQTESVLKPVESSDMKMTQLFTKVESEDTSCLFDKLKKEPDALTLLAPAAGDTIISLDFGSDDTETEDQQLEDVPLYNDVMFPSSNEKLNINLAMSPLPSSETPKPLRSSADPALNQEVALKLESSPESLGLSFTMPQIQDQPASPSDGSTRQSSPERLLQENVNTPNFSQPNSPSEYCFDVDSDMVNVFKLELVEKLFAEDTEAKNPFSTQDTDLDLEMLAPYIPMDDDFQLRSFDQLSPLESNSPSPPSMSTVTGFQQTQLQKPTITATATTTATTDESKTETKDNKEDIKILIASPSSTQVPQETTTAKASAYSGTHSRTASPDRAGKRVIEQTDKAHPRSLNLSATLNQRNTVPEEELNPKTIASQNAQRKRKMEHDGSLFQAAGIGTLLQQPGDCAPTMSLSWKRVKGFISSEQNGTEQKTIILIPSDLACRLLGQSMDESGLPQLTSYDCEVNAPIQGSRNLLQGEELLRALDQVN
UniProt P35222, residues 2-781: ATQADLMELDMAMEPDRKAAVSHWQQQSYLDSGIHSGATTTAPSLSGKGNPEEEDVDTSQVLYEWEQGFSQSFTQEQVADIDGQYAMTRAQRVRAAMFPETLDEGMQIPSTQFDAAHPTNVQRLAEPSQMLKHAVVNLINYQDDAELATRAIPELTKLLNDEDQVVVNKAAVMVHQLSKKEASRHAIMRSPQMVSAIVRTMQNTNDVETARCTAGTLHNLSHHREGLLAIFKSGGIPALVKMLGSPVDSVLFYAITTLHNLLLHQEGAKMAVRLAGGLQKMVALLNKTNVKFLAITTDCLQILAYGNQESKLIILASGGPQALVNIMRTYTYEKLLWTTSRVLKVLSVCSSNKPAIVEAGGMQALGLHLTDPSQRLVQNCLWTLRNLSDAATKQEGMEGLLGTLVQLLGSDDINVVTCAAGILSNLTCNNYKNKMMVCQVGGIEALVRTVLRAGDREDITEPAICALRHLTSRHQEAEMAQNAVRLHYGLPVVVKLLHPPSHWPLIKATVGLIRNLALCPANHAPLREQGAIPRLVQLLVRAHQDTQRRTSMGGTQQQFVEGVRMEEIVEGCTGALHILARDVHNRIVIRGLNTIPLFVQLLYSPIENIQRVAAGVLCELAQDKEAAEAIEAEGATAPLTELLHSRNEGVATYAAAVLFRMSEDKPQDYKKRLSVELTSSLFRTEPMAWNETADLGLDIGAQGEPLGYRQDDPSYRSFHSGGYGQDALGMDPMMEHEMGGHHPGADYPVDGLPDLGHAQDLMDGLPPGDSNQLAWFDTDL
UniProt Q02248, residues 2-781: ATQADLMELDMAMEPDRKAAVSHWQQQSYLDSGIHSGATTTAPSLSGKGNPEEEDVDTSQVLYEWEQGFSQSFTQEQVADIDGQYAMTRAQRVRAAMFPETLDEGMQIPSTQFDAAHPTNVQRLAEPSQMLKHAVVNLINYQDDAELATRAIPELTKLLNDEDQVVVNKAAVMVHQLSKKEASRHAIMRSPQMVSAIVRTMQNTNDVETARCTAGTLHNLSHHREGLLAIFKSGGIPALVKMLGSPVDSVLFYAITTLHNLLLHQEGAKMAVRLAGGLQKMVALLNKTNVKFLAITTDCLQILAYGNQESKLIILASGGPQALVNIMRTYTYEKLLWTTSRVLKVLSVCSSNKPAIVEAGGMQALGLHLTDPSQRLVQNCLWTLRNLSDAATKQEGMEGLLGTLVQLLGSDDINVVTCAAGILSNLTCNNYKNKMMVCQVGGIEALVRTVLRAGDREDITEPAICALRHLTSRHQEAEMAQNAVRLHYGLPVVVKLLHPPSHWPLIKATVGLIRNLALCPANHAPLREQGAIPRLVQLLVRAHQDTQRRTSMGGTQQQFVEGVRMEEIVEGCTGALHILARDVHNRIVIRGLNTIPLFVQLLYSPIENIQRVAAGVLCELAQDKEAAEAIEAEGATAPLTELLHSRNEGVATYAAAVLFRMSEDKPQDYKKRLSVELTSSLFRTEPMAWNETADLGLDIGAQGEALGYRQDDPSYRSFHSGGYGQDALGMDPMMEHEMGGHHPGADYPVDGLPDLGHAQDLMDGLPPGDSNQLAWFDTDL

In assay [1] the target is HIF-1α (endogenous, human hepatocellular carcinoma cell lines HepG2 and Huh7) (human) (UniProt Q16665). Briefly: co-immunoprecipitation from HepG2 cell lysates with anti-β-catenin antibody, immunoblot for HIF-1α; hypoxia. (In general: A western blot detects proteins with antibodies after separation by electrophoresis.)
Assay [2] has the same target. Briefly: co-immunoprecipitation, human hepatocellular carcinoma cell lines Huh7 and HepG2.
For assay [3], the target named is HIF-1α (endogenous, mouse liver) (mouse) (UniProt Q61221). Put plainly: co-immunoprecipitation from sham or ischemia-treated mouse liver lysates with anti-β-catenin antibody, immunoblot for HIF-1α.

No constants are given. Whether binding was seen depends on the method and setting. In cells and extracts the contact can be indirect. Some entries that bind do so weakly or less than the wild type.

Regarding “β-catenin (endogenous, human hepatocellular carcinoma cell lines HepG2 and Huh7) (from UniProt P35222 2-781)”, the binding entry in assay [1] and in assay [2] was “binds” in each case.

With “β-catenin (endogenous, mouse liver / mouse AML12 hepatocytes) (from UniProt Q02248 2-781)”, in assay [3], the binding result is “binds”.
